Experimental data: PubChem BioAssay AID1259405 (NCATS, 2018)

- Aim: 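Silenced genes that increase secreted GFP made by CHO cells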 (primary screen)
- Cells: Chinese hamster CHO-K1 ovary cells with stable secreted eGFP expression
- Knock-down reagent: single siRNA against mouse genes, 0.8 pmol siRNA per well (2 µl of 400 nM stock)
- Time to read-out: 3 days
- Measured: 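Per-well intracellular GFP measured by laser scanning cytometry, plus viability from ATP luminescence, each relative to plate median of non-targeting control wells, in %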
- Direction: GFP, % of control: higher = more GFP per well, higher productivity; viability (ATP), % of control: higher = more viable cells (more ATP)
- Hit rule: 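a knock-down is called active if GFP reaches 120% or more of non-targeting control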
The deposit covers about 50,000 reagents; this is an unselected part. Over the whole deposit, about 4,000 (8%) were called active. 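Mouse siRNA library applied to hamster cells; one well for each siRNA.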 Unmarked entries are inactive. The numbers tell different reagents against one gene apart.

Against Fcna #1, the entry reads GFP, % of control 93.1; viability (ATP), % of control 59.1. Fcna #2 scored GFP, % of control 86.9; viability (ATP), % of control 78.6. Against Fcna #3, the entry reads GFP, % of control 120 (active); viability (ATP), % of control 94.6. Pgk1 #1 showed GFP, % of control 112; viability (ATP), % of control 86.4. Against Pgk1 #2, the values are GFP, % of control 75.4; viability (ATP), % of control 86.3. With knock-down of Pgk1 #3, the record shows GFP, % of control 78.9; viability (ATP), % of control 75.6.

Against Rps6kl1 #1, the values are GFP, % of control 112; viability (ATP), % of control 67. For Rps6kl1 #2, the entry reads GFP, % of control 49.5; viability (ATP), % of control 24.3. Rps6kl1 #3 scored GFP, % of control 118; viability (ATP), % of control 88.2. Sp140 #1 gave GFP, % of control 66.8; viability (ATP), % of control 63.5. With knock-down of Sp140 #2, the screen gave GFP, % of control 94.6; viability (ATP), % of control 55.8. Sp140 #3 gave GFP, % of control 54.6; viability (ATP), % of control 54.

Part of the list above, reduced to “GFP, % of control”.
Sp140 #1 = 66.8
Sp140 #2 = 94.6

Next results follow.
Ms4a4d #1 showed GFP, % of control 96.6; viability (ATP), % of control 68.9. For Ms4a4d #2, the values are GFP, % of control 90.8; viability (ATP), % of control 51.8. Silencing of Ms4a4d #3 came out at: GFP, % of control 71.1; viability (ATP), % of control 53.8. With knock-down of C2cd4c #1 the results were GFP, % of control 69.4; viability (ATP), % of control 59.4. C2cd4c #2 showed GFP, % of control 91.1; viability (ATP), % of control 45.7. With knock-down of C2cd4c #3, the screen gave GFP, % of control 87.7; viability (ATP), % of control 80.9.

Depletion of Ogfod2 #1 gave: GFP, % of control 69.6; viability (ATP), % of control 53.4. Ogfod2 #2 scored GFP, % of control 82.2; viability (ATP), % of control 98.4. Against Ogfod2 #3 the deposit lists GFP, % of control 123 (active); viability (ATP), % of control 117. Rps23 #1 scored GFP, % of control 58.1; viability (ATP), % of control 27. For Rps23 #2 the deposit lists GFP, % of control 73.6; viability (ATP), % of control 64.4. Rps23 #3 gave GFP, % of control 114; viability (ATP), % of control 87.

Against Tdh #1, the entry reads GFP, % of control 83.3; viability (ATP), % of control 54.9. Tdh #2 gave GFP, % of control 71.5; viability (ATP), % of control 72.3. With knock-down of Tdh #3 the results were GFP, % of control 81.2; viability (ATP), % of control 75.9.
